Measured values: the supplement of paper PMC10849652
Some of the results follow.

Amino acid sequences for entries named in this document (tags omitted). A change or cut given only in a name is not applied to a line headed by its entry.
UniProt Q9GZU8: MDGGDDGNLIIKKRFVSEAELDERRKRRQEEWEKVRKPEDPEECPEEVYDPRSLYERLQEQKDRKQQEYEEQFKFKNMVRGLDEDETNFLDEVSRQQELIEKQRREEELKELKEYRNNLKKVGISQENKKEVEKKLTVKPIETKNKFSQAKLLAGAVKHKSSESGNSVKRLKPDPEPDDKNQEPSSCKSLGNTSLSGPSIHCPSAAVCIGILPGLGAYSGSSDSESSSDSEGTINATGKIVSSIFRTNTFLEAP
UniProt Q9NZB2: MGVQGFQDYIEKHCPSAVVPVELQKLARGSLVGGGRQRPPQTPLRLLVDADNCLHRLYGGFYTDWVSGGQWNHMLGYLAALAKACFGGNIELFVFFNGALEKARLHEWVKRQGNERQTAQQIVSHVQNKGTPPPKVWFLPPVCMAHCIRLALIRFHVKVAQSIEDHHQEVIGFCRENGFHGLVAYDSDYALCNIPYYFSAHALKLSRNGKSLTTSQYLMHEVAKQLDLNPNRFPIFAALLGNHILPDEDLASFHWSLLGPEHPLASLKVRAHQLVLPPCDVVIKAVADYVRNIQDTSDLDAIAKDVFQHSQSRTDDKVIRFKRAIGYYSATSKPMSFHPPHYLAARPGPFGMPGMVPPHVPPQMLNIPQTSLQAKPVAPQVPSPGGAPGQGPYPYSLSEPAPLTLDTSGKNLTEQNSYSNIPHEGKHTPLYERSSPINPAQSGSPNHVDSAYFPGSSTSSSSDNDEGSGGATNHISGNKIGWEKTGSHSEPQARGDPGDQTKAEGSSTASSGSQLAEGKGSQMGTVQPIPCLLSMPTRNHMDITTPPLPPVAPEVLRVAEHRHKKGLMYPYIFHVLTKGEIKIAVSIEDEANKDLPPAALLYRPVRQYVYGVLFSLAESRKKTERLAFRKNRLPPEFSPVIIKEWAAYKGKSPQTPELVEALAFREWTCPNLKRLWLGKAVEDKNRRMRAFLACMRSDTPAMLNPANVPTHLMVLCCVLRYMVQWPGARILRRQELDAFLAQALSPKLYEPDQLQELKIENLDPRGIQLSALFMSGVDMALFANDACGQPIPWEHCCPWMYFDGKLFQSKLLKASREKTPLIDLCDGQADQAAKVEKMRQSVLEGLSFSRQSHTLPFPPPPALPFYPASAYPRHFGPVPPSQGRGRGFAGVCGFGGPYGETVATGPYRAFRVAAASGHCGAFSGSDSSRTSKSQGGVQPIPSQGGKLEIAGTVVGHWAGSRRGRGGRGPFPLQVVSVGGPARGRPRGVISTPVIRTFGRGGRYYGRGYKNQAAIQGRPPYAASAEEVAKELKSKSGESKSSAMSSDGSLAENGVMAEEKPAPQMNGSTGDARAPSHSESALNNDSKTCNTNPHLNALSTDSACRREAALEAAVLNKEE
UniProt Q13868, whole entry, looked up: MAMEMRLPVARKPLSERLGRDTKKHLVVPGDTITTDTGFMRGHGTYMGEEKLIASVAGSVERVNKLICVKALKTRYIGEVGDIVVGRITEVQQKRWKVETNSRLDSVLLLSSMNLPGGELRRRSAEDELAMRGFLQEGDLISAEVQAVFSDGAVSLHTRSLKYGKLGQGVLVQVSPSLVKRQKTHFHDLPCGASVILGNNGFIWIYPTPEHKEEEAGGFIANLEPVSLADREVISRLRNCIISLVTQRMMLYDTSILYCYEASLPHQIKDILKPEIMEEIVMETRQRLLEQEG
UniProt P07814: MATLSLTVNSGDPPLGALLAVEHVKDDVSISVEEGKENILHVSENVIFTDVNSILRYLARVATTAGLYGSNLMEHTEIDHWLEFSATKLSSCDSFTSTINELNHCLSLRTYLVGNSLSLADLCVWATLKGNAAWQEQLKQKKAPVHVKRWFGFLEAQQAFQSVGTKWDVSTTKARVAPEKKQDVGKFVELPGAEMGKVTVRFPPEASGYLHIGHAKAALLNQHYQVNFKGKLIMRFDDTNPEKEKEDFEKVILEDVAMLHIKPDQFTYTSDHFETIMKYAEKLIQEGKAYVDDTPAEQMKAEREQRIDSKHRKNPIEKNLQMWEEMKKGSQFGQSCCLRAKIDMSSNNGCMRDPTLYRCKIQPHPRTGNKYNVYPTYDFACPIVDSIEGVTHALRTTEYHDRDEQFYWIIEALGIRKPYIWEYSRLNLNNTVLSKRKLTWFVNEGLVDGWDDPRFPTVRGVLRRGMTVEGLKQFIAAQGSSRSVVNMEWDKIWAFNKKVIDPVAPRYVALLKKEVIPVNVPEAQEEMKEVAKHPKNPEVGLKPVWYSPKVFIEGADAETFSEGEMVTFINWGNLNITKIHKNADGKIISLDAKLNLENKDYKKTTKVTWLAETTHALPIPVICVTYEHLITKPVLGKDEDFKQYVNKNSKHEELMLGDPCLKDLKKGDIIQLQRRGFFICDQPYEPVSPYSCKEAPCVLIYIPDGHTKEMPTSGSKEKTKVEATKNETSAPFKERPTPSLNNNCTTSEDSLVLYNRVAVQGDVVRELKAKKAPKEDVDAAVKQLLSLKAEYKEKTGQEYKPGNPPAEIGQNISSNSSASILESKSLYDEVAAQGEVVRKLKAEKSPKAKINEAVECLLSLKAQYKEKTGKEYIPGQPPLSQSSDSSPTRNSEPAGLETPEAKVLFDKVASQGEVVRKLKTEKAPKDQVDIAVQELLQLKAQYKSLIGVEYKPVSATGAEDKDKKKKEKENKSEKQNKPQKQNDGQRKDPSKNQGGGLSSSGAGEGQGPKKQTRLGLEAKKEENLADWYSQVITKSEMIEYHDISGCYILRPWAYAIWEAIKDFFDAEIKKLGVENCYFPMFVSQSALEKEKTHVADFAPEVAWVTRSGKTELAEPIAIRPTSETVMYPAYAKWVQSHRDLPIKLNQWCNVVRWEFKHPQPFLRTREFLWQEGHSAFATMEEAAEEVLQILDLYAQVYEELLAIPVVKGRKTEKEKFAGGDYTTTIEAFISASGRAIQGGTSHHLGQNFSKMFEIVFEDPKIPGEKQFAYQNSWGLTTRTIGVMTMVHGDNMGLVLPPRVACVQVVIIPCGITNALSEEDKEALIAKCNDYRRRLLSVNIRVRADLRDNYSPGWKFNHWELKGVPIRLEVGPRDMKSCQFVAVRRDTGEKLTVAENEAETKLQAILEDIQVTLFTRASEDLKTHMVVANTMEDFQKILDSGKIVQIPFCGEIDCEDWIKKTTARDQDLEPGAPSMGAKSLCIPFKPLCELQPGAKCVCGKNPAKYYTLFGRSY
UniProt Q9NQT4, whole entry, looked up: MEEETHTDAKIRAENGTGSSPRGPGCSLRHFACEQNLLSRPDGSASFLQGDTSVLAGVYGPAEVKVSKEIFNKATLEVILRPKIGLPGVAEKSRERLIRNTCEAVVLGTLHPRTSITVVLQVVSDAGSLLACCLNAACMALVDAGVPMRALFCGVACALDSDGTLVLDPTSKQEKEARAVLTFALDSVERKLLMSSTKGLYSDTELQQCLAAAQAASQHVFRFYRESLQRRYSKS
UniProt P16422: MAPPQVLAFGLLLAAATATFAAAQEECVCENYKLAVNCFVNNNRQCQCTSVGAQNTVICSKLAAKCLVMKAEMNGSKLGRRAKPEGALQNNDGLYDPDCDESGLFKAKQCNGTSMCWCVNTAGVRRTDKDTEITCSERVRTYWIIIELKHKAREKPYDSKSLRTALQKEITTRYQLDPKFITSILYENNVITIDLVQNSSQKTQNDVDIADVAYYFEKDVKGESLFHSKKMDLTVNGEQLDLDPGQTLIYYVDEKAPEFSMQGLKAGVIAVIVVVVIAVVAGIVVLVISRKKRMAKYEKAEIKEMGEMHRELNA
UniProt Q9NQT5, whole entry, looked up: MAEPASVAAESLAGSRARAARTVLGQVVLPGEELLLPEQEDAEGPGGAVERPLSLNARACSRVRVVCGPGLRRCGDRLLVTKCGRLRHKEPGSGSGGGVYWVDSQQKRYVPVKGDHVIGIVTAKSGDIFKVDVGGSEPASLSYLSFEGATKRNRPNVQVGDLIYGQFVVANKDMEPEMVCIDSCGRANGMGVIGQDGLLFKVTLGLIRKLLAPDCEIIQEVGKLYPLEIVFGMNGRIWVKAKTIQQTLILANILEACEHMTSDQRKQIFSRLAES
UniProt P28715: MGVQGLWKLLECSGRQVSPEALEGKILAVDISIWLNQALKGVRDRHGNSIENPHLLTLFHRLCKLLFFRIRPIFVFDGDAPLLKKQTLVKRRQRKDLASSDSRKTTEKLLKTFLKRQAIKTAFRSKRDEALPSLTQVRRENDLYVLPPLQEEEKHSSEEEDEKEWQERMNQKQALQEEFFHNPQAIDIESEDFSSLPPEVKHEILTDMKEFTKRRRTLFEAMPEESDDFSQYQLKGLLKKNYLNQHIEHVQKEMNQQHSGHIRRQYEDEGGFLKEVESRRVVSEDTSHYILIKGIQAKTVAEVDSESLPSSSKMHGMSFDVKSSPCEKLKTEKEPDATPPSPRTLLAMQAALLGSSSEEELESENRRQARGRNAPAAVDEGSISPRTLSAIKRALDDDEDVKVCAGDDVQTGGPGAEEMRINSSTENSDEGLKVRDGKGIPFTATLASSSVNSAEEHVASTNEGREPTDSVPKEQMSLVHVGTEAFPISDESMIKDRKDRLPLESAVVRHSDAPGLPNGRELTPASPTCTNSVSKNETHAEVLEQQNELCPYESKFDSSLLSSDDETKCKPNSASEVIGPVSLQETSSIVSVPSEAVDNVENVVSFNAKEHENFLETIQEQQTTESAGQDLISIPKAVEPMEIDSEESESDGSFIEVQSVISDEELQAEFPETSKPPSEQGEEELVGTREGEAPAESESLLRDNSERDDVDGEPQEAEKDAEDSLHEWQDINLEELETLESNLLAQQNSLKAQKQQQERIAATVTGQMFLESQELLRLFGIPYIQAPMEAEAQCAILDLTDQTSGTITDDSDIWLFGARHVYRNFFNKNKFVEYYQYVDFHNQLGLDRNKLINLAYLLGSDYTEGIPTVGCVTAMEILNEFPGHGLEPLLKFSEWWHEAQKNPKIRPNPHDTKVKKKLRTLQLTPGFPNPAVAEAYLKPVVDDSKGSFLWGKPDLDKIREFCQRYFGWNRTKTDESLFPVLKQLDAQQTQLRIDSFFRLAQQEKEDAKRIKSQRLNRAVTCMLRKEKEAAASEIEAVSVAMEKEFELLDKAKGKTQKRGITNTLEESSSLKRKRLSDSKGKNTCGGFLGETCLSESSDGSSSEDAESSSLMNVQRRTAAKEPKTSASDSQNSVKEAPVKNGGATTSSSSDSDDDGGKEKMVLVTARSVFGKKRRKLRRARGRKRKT
UniProt O43491, whole entry, looked up: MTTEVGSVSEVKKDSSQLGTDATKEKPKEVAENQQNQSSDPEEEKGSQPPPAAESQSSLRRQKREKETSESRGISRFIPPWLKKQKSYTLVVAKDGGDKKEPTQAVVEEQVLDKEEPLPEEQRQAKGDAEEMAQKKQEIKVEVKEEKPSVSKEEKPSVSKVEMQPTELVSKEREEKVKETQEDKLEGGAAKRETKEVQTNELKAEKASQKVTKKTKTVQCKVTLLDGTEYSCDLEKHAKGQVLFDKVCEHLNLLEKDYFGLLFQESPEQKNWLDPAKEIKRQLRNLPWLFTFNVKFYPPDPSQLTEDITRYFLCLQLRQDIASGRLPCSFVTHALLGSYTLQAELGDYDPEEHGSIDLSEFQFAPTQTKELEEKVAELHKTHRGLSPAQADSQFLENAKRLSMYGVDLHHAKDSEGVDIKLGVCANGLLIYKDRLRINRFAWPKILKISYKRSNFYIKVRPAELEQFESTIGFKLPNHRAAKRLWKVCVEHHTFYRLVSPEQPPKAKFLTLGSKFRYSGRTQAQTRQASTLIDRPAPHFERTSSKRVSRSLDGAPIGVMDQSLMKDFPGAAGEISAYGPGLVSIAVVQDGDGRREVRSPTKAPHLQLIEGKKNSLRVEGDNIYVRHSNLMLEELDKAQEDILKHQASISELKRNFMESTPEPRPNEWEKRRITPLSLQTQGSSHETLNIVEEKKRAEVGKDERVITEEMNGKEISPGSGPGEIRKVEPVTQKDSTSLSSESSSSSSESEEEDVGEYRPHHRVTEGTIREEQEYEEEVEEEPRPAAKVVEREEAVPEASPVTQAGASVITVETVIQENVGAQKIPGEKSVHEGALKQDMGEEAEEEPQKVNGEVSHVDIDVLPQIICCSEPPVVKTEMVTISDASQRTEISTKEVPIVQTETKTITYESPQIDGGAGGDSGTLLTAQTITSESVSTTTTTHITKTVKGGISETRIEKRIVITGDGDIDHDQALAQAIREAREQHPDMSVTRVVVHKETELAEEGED

How the values were obtained:
Test in all cases: log2 fold change, soluble protein after heating vs DMSO (PISA); higher = thermal stabilisation; K562 cells, 10 uM, 30 min; active = over 0.2 and 3.5 SD of the protein, either way, in both replicates (recomputed)
[1] = compound: CC[C@@H]1C(=O)N(C)c2cnc(Nc3ccc(C(=O)NC4CCN(C)CC4)cc3OC)nc2N1C1CCCC1
Method in brief: (§1)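 K562 cells at 2×10^6 cells/mL were treated with 10 μM compound for 30 min. Aliquots were heated for 3 min across 48°C-58°C, pooled, and extracted in PBS with 0.5% NP-40 at 4°C; soluble protein was the supernatant after 21,000xg for 90 min. Soluble protein was quantified by TMTpro 16plex LC-MS/MS with channel sums equalised, and reported as log2 fold change in thermal stability against DMSO controls, with values from duplicates.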

[2] = compound: CC[C@@H]1C(=O)N(C)c2cnc(Nc3ccc(C(=O)N[C@H]4CC[C@H](N5CCN(CC6CC6)CC5)CC4)cc3OC)nc2N1C(C)C [volasertib]
Method in brief: as §1

[3] = compound: CC[C@H](C)N1C=C(C2=C(C=C(C=C21)C3=CN=C(C=C3)N4CCNCC4)C(=O)NCC5=C(C=C(NC5=O)C)C)C
Method in brief: as §1

[4] = compound: CC[C@H](C)[C@@H](C(=O)N[C@@H]([C@@H](C)O)C(=O)N[C@@H](CC(C)C)C(=O)[C@]1(CO1)C)NC(=O)[C@H]([C@@H](C)CC)N(C)C(=O)C [epoxomicin]
Method in brief: as §1

[5] = compound: CCn1c(C(=O)N(C2CC2)C2CC2)cc2c3c(ncn3C)c(Nc3cc(C)n(C)n3)nc21
Method in brief: as §1

[6] = compound: CCn1cc(-c2ccnc3[nH]c(-c4cccc(CN(C)C)c4)cc23)c(-c2ccc(NC(=O)N(C)C)cc2)n1
Method in brief: as §1

[7] = compound: CN(C)CC(=O)Nc1ccc2[nH]c(=O)c3ccccc3c2c1
Method in brief: as §1

[8] = compound: CN(CCOC1=CC=C(C=C1)C[C@H]2C(=O)NC(=O)S2)C3=CC=CC=N3 (racemic) [rosiglitazone]
Method in brief: as §1

[9] = compound: CN1C2=C(C3=C1C(=O)N(N=C3)CC4=CC(=CC=C4)N)SC(=C2)S(=O)C
Method in brief: as §1

[10] = compound: CN1CCC(CNc2ccc3ncc(-c4cccc(OC(F)(F)F)c4)n3n2)CC1
Method in brief: as §1

[11] = compound: CN1CCN(CCOc2cc(OC3CCOCC3)c3c(Nc4c(Cl)ccc5c4OCO5)ncnc3c2)CC1 [saracatinib]
Method in brief: as §1

[12] = compound: CN1CCN(c2nc(C3=C(c4c[nH]c5ccccc45)C(=O)NC3=O)c3ccccc3n2)CC1 [sotrastaurin]
Method in brief: as §1

[13] = compound: CN1CC[C@H](c2c(O)cc(O)c3c(=O)cc(-c4ccccc4Cl)oc23)[C@H](O)C1 [alvocidib]
Method in brief: as §1

[14] = compound: CN1CCc2c(c3ccccc3n2Cc2ccc(C(=O)NO)cc2)C1 [Tubastatin A]
Method in brief: as §1

[15] = compound: CNC(=O)C1=CC=CC=C1NC2=NC(=NC=C2Cl)NC3=C(C=C(C=C3)N4CCOCC4)OC
Method in brief: as §1

[16] = compound: CNC(=O)c1ccc(Nc2ncc(C(F)(F)F)c(NCc3nccnc3N(C)S(C)(=O)=O)n2)cc1 [defactinib]
Method in brief: as §1

[17] = compound: CNCc1ccc(-c2[nH]c3cc(F)cc4c3c2CCNC4=O)cc1 [rucaparib]
Method in brief: as §1

[18] = compound: CNc1nc(-c2ccc3c(N)n[nH]c3c2)cc(N2C[C@@H](C(=O)NC3CCCCC3)CC[C@H]2C)n1
Method in brief: as §1

[19] = compound: COC(=O)N[C@@H](C)CNc1nccc(-c2cn(C(C)C)nc2-c2cc(Cl)cc(NS(C)(=O)=O)c2F)n1 [encorafenib]
Method in brief: as §1

[20] = compound: COC(=O)[C@H](CCSC)NC(=O)C1=C(C=C(C=C1)NC[C@H](CS)N)C2=CC=CC=C2
Method in brief: as §1

Measured: log2 fold change

FAM192A (UniProt Q9GZU8)
inactive: [1] -0.061 | [2] 0.077 | [3] -0.028 | [4] -0.088 | [5] 0.015 | [6] -0.018 | [7] -0.062 | [8] -0.008 | [9] -0.055 | [10] -0.037 | [11] -0.04 | [12] 0.081 | [13] 0.047 | [14] -0.038 | [15] -0.026 | [16] -0.011 | [17] -0.055 | [18] -0.101 | [19] -0.014 | [20] 0.076

ERP44 (UniProt Q9BS26)
inactive: [1] -0.018 | [2] -0.005 | [3] 0.006 | [4] 0.045 | [5] 0.003 | [6] -0.006 | [7] -0.037 | [8] -0.012 | [9] -0.004 | [10] 0.122 | [11] -0.04 | [12] 0.011 | [13] -0.009 | [14] 0.005 | [15] 0.066 | [16] 0.002 | [17] 0.01 | [18] -0.022 | [19] -0.012 | [20] 0.007

ERMAP (UniProt Q96PL5)
inactive: [1] 0.053 | [2] 0.107 | [3] -0.022 | [4] 0.029 | [5] -0.092 | [6] -0.038 | [7] 0.101 | [8] 0.019 | [9] 0.058 | [10] 0.1 | [11] 0.087 | [12] 0.189 | [13] 0.006 | [14] 0.078 | [15] -0.036 | [16] -0.023 | [17] -0.029 | [18] -0.007 | [19] 0.034 | [20] -0.061

FAM120A isoform 6 (UniProt Q9NZB2)
inactive: [1] 0.204 | [2] 0.294 | [3] -0.032 | [4] -0.206 | [5] 0.018 | [6] 0.068 | [7] -0.108 | [8] -0.101 | [9] 0.114 | [10] 0.164 | [11] 0.037 | [12] 0.018 | [13] 0.281 | [14] 0.043 | [15] 0.022 | [16] 0.267 | [17] 0.181 | [18] 0.009 | [19] 0.042 | [20] 0.048

Random excerpt: 2 records from the list, in no set order.
ERMAP (UniProt Q96PL5)
inactive: [1] 0.053 | [2] 0.107 | [3] -0.022 | [4] 0.029 | [5] -0.092 | [6] -0.038 | [7] 0.101 | [8] 0.019 | [9] 0.058 | [10] 0.1 | [11] 0.087 | [12] 0.189 | [13] 0.006 | [14] 0.078 | [15] -0.036 | [16] -0.023 | [17] -0.029 | [18] -0.007 | [19] 0.034 | [20] -0.061

FAM120A isoform 6 (UniProt Q9NZB2)
inactive: [1] 0.204 | [2] 0.294 | [3] -0.032 | [4] -0.206 | [5] 0.018 | [6] 0.068 | [7] -0.108 | [8] -0.101 | [9] 0.114 | [10] 0.164 | [11] 0.037 | [12] 0.018 | [13] 0.281 | [14] 0.043 | [15] 0.022 | [16] 0.267 | [17] 0.181 | [18] 0.009 | [19] 0.042 | [20] 0.048

(list continues)

EXOSC2 (UniProt Q13868)
inactive: [1] 0.044 | [2] 0.061 | [3] -0.041 | [4] -0.023 | [5] 0.03 | [6] 0.016 | [7] -0.021 | [8] -0.011 | [9] -0.002 | [10] 0.045 | [11] 0.05 | [12] 0.015 | [13] 0.03 | [14] -0.032 | [15] -0.024 | [16] 0.029 | [17] -0.013 | [18] -0.043 | [19] -0.016 | [20] -0.019

EPRS (UniProt P07814)
inactive: [1] 0.13 | [2] 0.059 | [3] 0.019 | [4] -0.204 | [5] -0.027 | [6] 0.137 | [7] -0.007 | [8] -0.055 | [9] 0.38 | [10] 0.048 | [11] -0.104 | [12] -0.056 | [13] 0.214 | [14] 0.024 | [15] 0.017 | [16] 0.284 | [17] 0.421 | [18] 0.145 | [19] 0.204 | [20] 0.015

EXOSC5 (UniProt Q9NQT4)
inactive: [1] 0.054 | [2] 0.096 | [3] -0.011 | [4] -0.015 | [5] 0.012 | [6] 0.02 | [7] -0.063 | [8] 0 | [9] -0.033 | [10] -0.03 | [11] -0.007 | [12] -0.012 | [13] 0.041 | [14] 0 | [15] -0.018 | [16] 0.059 | [17] -0.012 | [18] -0.015 | [19] -0.013 | [20] 0.025

ERP29 (UniProt P30040)
inactive: [1] -0.016 | [2] 0.074 | [3] 0.03 | [4] 0.053 | [5] 0.04 | [6] -0.029 | [7] -0.017 | [8] -0.016 | [9] -0.017 | [10] 0.083 | [11] -0.023 | [12] 0.006 | [13] -0.026 | [14] 0.012 | [15] 0.016 | [16] 0.003 | [17] 0.035 | [18] -0.007 | [19] 0.006 | [20] -0.001

EPN2 (UniProt O95208)
inactive: [1] -0.14 | [2] -0.041 | [3] -0.053 | [4] 0.047 | [5] -0.002 | [6] 0.044 | [7] 0.011 | [8] -0.096 | [9] -0.052 | [10] -0.167 | [11] 0.078 | [12] 0.007 | [13] 0.042 | [14] 0.006 | [15] 0.026 | [16] -0.045 | [17] -0.015 | [18] -0.005 | [19] 0.041 | [20] -0.009

EPCAM (UniProt P16422)
inactive: [1] -0.018 | [2] -0.014 | [3] 0.048 | [4] -0.04 | [5] -0.023 | [6] -0.101 | [7] 0.002 | [8] 0.002 | [9] -0.078 | [10] -0.05 | [11] 0.042 | [12] -0.006 | [13] -0.064 | [14] 0.025 | [15] -0.01 | [16] -0.112 | [17] -0.001 | [18] 0.006 | [19] 0.003 | [20] 0.024

EXOSC3 (UniProt Q9NQT5)
inactive: [1] 0.001 | [2] 0.036 | [3] -0.004 | [4] -0.019 | [5] -0.006 | [6] -0.027 | [7] 0.025 | [8] 0.033 | [9] 0.007 | [10] 0.078 | [11] -0.032 | [12] -0.022 | [13] -0.005 | [14] 0 | [15] -0.032 | [16] -0.029 | [17] 0.04 | [18] 0.051 | [19] 0.023 | [20] -0.062

ERCC5 (UniProt P28715)
inactive: [1] -0.156 | [2] -0.126 | [3] 0.052 | [4] -0.054 | [5] -0.096 | [6] -0.032 | [7] -0.035 | [8] 0.16 | [9] -0.15 | [10] 0.044 | [11] -0.015 | [12] 0.087 | [13] -0.038 | [14] -0.004 | [15] 0.038 | [16] -0.068 | [17] -0.048 | [18] -0.018 | [19] 0.046 | [20] 0.006

ETF1 (UniProt P62495)
inactive: [1] 0.01 | [2] -0.046 | [3] 0.038 | [4] 0.01 | [5] 0 | [6] -0.02 | [7] -0.023 | [8] 0.048 | [9] -0.048 | [10] -0.085 | [11] 0.006 | [12] 0.037 | [13] -0.045 | [14] -0.023 | [15] 0.031 | [16] -0.017 | [17] -0.045 | [18] 0.01 | [19] 0.02 | [20] -0.029

ETFA (UniProt P13804)
inactive: [1] -0.015 | [2] 0.035 | [3] -0.001 | [4] 0.031 | [5] -0.01 | [6] -0.055 | [7] 0.012 | [8] 0.016 | [9] -0.083 | [10] -0.051 | [11] -0.027 | [12] 0.019 | [13] -0.055 | [14] -0.041 | [15] 0.02 | [16] -0.031 | [17] -0.067 | [18] 0.037 | [19] -0.001 | [20] -0.003

ERVK3-1, A0A0U1RQV1
inactive: [1] 0.029 | [2] -0.012 | [3] 0 | [4] 0.372 | [5] 0.004 | [6] 0.046 | [7] -0.049 | [8] 0.02 | [9] -0.039 | [10] -0.002 | [11] 0.023 | [12] 0.039 | [13] -0.036 | [14] 0.016 | [15] -0.042 | [16] -0.018 | [17] -0.003 | [18] -0.026 | [19] -0.105 | [20] 0.064

EPB41L2 (UniProt O43491)
inactive: [1] -0.016 | [2] 0.002 | [3] 0.023 | [4] 0.014 | [5] 0.018 | [6] 0.001 | [7] -0.014 | [8] 0.008 | [9] -0.053 | [10] -0.074 | [11] -0.015 | [12] 0.056 | [13] -0.06 | [14] 0.021 | [15] -0.025 | [16] -0.077 | [17] -0.009 | [18] 0.079 | [19] 0.012 | [20] 0.015
